Laboratory results as given in doi:10.1101/2025.03.23.644798 (bioRxiv, 2025).
Results are given in words; binding and its absence hold for the method and conditions named.

Biological target: R255L SpDAAO (Schizosaccharomyces pombe) (UniProt Q9Y7N4)
Assay: native gel or EMSA

B1: R255L SpDAAO (enzyme, UniProt Q9Y7N4 1-348)
chain: MTKENKPRDIVIVGAGVIGLTTAWILSDLGLAPRIKVIAKYTPEDRSVEYTSPWAGANFCSISATDDNALRWDKITYHRFAYLAKTRPEAGIRFADLRELWEYEPKHDKIRSWNTYVRDFKVIPEKDLPGECIYGHKATTFLINAPHYLNYMYKLLIEAGVEFEKKELSHIKETVEETPEASVVFNCTGLWASKLGGVEDPDVYPTRGHVVLVKAPHVTETRILNGKNSDTYIIPRPLNGGVICGGFMQPGNWDLEIHPEDTLDILKRTSALMPELFHGKGPEGAEIIQECVGFRPSRKGGARVELDVVPGTSVPLVHDYGASGTGYQAGYGMALDSVMLALPKIKLA
binding: no binding
